The target of test [1] is T1, in vitro-translated ^35S-labelled hD52 (pTL1hD52) (human) (UniProt P55327).
T1 sequence (chain, ^35S-Methionine labelled): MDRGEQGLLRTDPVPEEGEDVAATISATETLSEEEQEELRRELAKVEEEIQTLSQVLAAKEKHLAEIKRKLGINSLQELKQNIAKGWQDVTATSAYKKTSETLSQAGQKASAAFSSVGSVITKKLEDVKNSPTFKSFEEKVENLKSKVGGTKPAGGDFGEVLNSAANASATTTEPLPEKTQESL
Kind of test: GST pull-down, ^35S-labelled in vitro-translated protein, autoradiography.

Chains of the proteins cited; added tags and fusions are not shown. Lines headed by an entry give the natural chain unless they say otherwise; changes in a name come on top.
UniProt P55327: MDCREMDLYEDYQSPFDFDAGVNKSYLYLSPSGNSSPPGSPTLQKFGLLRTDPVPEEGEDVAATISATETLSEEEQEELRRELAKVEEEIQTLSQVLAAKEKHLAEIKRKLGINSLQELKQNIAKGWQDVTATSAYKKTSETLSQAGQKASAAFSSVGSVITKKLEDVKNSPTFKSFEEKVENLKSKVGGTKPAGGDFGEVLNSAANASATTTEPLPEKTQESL
UniProt O43399: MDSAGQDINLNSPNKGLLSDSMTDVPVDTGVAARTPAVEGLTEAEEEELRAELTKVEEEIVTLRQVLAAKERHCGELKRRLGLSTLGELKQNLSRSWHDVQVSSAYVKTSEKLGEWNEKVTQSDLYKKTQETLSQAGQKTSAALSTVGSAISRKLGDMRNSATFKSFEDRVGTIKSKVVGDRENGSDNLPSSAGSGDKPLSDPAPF

For test [2], the target named is in vitro-translated ^35S-labelled hD54-ins2 (pTL1hD54-ins2) (human) (UniProt O43399). The description is as above.

The source of these data is patent US6528283.

Results are given in words; binding and its absence hold for the method and conditions named. Binding seen in cells or lysates may run through a third protein. Some entries that bind do so weakly or less than the wild type. Tags and fused reporters may be left off the sequences shown.

B1: Recombinant GST-mD52 (N-terminally GST-tagged full-length mD52 with C-terminal 6-histidine tag, pGEX3XmD52-6His) (protein, not shown: a dimerising Fc or GST)
chain: MDRGEQGLLKTEPVAEEGEDAVTMLSAPEALTEEEQEELRRELTKVEEEIQTLSQVLAAKEKHLAELKRKLGISSLQEFKQNIAKGWQDVTATNAYKKTSETLSQAGQKASAAFSSVGSVITKKLEDVKNSPTFKSFEEKVENLKSKVGGAKPAGGDFGEVLNSTANATSTMTTEPPPEQMTESPHHHHHH
For the molecule B1, the binding result in test [1] and in test [2] was “binds” each time.
